Patent US10738019B2, “Compound including basic dye and amino acid, hair dyeing dye, and hair dyeing composition” (HODOGAYA CHEMICAL CO., LTD., priority 2018, dated 2020)

Assays:
Design in all cases: species or system Human
[1] = Sweat resistance test (acidic artificial sweat); settings: acidic artificial sweat pH 5.5, 40° C., 10 minutes; for Residual rate (K/Sd ratio relative to untested specimen): bath ratio 1:10; for Hue difference ΔH: before vs after test
[2] = Sweat resistance test (basic artificial sweat); settings: basic artificial sweat pH 8.0, 40° C., 10 minutes; for Residual rate (K/Sd ratio relative to untested specimen): bath ratio 1:10; for Hue difference ΔH: before vs after test
[3] = Hair dyeing concentration (K/Sd) of hair dyed with dyeing gel, spectrocolorimeter; settings: before test; dyeing gel pH 6, hair dyed at 40° C. for 10 minutes, washed with water

SMILES | Residual rate (K/Sd ratio relative to untested specimen) [1] [%] | Hue difference ΔH [1] | Residual rate (K/Sd ratio relative to untested specimen) [2] [%] | Hue difference ΔH [2] | Dyeing concentration (K/Sd) [3]
C[N+](C)(C)c1ccc2ccc(O)c(N=Nc3ccc(N)cc3)c2c1.[Cl-] [Basic Brown 16, C.I. Basic Brown 16] | 85.8 | 0.87 | 73.4 | 0.89 | 60.7
CC1=CC(=C(c2ccc(N)c(C)c2)c2ccc(N)c(C)c2)C=CC1=N.Cl [Basic Violet 2, C.I. Basic Violet 2] | 97.5 | 1.03 | 74.7 | 1.02 | 81.2
CC1=CC(=C(c2ccc(N)c(C)c2)c2ccc(N)c(C)c2)C=CC1=N [Compound (A-3)] | 99.9 | 1.06 | 83.3 | 1.07 | 129.7
C[N+](C)(C)c1ccc2ccc(O)c(/N=N/c3ccc(N)cc3)c2c1 [Compound (A-5)] | 64.1 | 0.87 | 91.0 | 0.97 | 72.2
CC1=CC(=C(c2cc(C)c(N)c(C)c2)c2c(Cl)cccc2Cl)C=C(C)C1=N.O=P(O)(O)O [HC Blue 15, C.I. HC Blue 15] | 89.5 | 0.93 | 97.7 | 1.02 | 50.6
